Measured values: US20210079095A1
Results are given in words; binding and its absence hold for the method and conditions named. Binding can be weak; no strength is given.

How the values were obtained:
[1] = target: canine PD-L1 (endogenous, in canine tumor tissue sections) (canine); assay: immunohistochemical staining of canine skin squamous cell carcinoma, nasal adenocarcinoma and transitional cell carcinoma (FIG. 12)
[2] = target: porcine PD-L1 (endogenous, in porcine infected tissue) (porcine); assay: immunohistochemical staining, case of porcine mycoplasma pneumonia (FIG. 7, right)
[3] = target: bovine PD-L1 (endogenous, in bovine ileal tissue) (bovine); assay: immunohistochemical staining of bovine ileal lesions, 400-fold dilution (FIG. 16)
[4] = target: canine PD-L1-EGFP (on canine PD-L1-EGFP expressing cells) (canine); assay: flow cytometry on stably expressing CHO-DG44 cells (FIG. 11)
[5] = target: canine PD-L1 (endogenous, in canine tumor tissue sections) (canine); assay: immunohistochemical staining of canine melanoma (FIG. 3)
[6] = target: canine PD-L1-EGFP (on canine PD-L1-EGFP expressing cells) (canine); assay: flow cytometry on transfected COS-7 cells, 10 µg/ml antibody (FIG. 1)
[7] = target: bovine PD-L1-EGFP (on bovine PD-L1-EGFP expressing cells) (bovine); assay: flow cytometry on stably expressing CHO-DG44 cells
[8] = target: bovine PD-L1-EGFP (on bovine PD-L1-EGFP expressing cells) (bovine); assay: flow cytometry on stably expressing CHO-DG44 cells (FIG. 15)
[9] = target: canine PD-L1 (endogenous, in canine tumor tissue sections) (canine); assay: immunohistochemical staining of six canine tumor types (FIGS. 12 and 13)
[10] = target: canine PD-L1 (endogenous, in canine tumor tissue sections) (canine); assay: immunohistochemical staining of canine anal sac gland carcinoma, soft tissue sarcoma and osteosarcoma (FIG. 13)
[11] = target: bovine PD-L1 (endogenous, in bovine ileal tissue) (bovine); assay: immunohistochemical staining of bovine ileal lesions (FIG. 16)
[12] = target: canine PD-L1 (endogenous, in canine tumor tissue sections) (canine); assay: immunohistochemical staining of canine melanoma, lymphoma, osteosarcoma and renal cell carcinoma
[13] = target: canine PD-L1 (endogenous, in canine tumor tissue sections) (canine); assay: immunohistochemical staining of canine oral malignant melanoma, mammary adenocarcinoma, histiocytic sarcoma and diffuse large B-cell lymphoma (FIG. 14)
[14] = target: ovine PD-L1 (endogenous, in ovine brain lesion tissue) (ovine); assay: immunohistochemical staining of a brain lesion of ovine listeriosis (FIG. 6)
[15] = target: porcine PD-L1 (endogenous, in porcine infected tissue) (porcine); assay: immunohistochemical staining, case of porcine circovirus type 2 infection (FIG. 7, left)
[16] = target: canine PD-L1 (endogenous, in canine tumor tissue sections) (canine); assay: immunohistochemical staining of canine melanoma, 400-fold dilution (FIG. 3)

binding [1]: binds
binding [2]: binds
binding [3]: binds
binding [4]: binds
binding [5]: binds
binding [6]: binds
binding [7]: binds
binding [8]: binds
binding [9]: binds
binding [10]: binds
binding [11]: binds
binding [12]: binds
binding [13]: binds
binding [14]: binds
binding [15]: binds
binding [16]: binds
B1: rat anti-bovine PD-L1 antibody 6C11-3A11 (antibody, IgG2a, V domains shown)
VH: QVKLLQSGAALVKPGDSVKMSCKASGYTFTDYIIHWVKQSHGKSLEWIGYINPDSGGNNYNEKFKSKATLTVDKSSSTAYMEFSRLTSEDSAIYYCARGITMMVVISHWKFDFWGPGTMVTVSS
VL: DVQMTQSPSNLAASPGESVSINCKASKSISKYLAWYQQKPGKANKLLIYSGSTLQSGTPSRFSGSGSGTDFTLTIRNLEPEDFGLYYCQQHNEYPLTFGSGTKLEIKR
